Assay results: PMC10643375
Results are given in words; binding and its absence hold for the method and conditions named. In cells and extracts the contact can be indirect. Some results given as binding are weak or reduced against the parent protein; the word gives no strength. Tags and fused reporters may be left off the sequences shown.

Protein sequences, listed by entry. Tags and fused reporters are not part of them.
UniProt Q99496: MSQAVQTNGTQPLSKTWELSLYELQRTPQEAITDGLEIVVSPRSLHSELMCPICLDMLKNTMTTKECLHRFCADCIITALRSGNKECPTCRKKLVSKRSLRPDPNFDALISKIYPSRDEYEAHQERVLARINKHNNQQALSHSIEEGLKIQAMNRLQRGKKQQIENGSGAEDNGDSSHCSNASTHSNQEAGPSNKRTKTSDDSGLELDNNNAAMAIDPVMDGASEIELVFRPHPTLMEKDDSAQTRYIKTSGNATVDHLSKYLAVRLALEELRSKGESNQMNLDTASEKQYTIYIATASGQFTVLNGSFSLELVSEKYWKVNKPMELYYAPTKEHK

Biological target: T1, TCF7L1-HA (UniProt Q9HCS4)
T1 sequence: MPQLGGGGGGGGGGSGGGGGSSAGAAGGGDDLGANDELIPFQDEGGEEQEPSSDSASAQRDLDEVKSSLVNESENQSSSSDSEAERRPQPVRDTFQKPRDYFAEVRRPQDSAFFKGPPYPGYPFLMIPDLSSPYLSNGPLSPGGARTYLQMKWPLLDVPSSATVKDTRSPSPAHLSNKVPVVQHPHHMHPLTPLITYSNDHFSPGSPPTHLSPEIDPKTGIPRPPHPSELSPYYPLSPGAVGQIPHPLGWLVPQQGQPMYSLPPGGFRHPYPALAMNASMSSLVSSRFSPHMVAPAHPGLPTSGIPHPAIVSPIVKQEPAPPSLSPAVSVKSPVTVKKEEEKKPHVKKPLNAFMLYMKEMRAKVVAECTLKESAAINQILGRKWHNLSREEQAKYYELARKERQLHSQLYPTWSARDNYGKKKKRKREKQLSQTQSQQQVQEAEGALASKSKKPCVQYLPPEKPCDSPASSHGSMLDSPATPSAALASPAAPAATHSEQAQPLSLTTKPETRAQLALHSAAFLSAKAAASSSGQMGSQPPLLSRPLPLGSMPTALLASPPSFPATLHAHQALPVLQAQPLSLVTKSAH
Experiment: co-IP; HeLa cells transfected with 6 µg TCF7L1-HA and 6 µg myc-RNF2, MG132 (10 µM, 12 h); lysed in IP buffer (50 mM Tris-HCl pH 7.5, 150 mM NaCl, 1% NP-40, 1 mM EDTA); immunoprecipitation with anti-myc and anti-HA, Protein G magnetic beads, Western blot

binding: binds
Substance: myc-RNF2 (from UniProt Q99496 1-336)
